Earlier results as cited in article PMC3445653 (Neuropharmacology, 2012).

Assays:
Conditions in all cases: ref Komander et al., 2003; Ling et al., 2002; cited from earlier work
[1] = tested on: PDK1
[2] = tested on: cAMP-dependent protein kinase (PKA)
[3] = tested on: Ca^2+/calmodulin-dependent protein kinase II (CaMKII)

CN[C@@H]1C[C@H]2O[C@@](C)([C@@H]1OC)n1c3ccccc3c3c4c(c5c6ccccc6n2c5c31)C(=O)NC4 [staurosporine]
low nanomolar concentrations: inhibition of PDK1 [1] | inhibition of PKA [2] | inhibition of CaMKII [3]
